Data published in patent US9572893B2, “Nanocomplex containing cationic peptide for biomolecule delivery” (Council of Scientific and Industrial Research, priority 2012, dated 2017).
Part of at least one peptide drawing is inferred or uncertain, most often the ends. Some entries share one result that the patent states for a list of compounds. Where a SMILES comes first, the peptide text is derived from it.

Columns and labels:
Format in all cases: cell-based
MCF-7 cells = test: Transfection efficiency (luciferase, pMIR-Report plasmid) in MCF-7 cells; conditions: charge ratio 10.0
Hacat cells = test: Transfection efficiency of the nanocomplex in Hacat cells as compared to commercial agents; conditions: charge ratio 10.0
CHO-K1 cells [1] = test: Transfection efficiency (luciferase, pMIR-Report plasmid) in CHO-K1 cells; conditions: charge ratio 10.0
CHO-K1 cells [2] = test: Serum stability of the nanocomplex: transfection in CHO-K1 cells with 10% FBS; conditions: charge ratio 10.0, 15.0, 20.0
[3] = test system: CHO-K1, HeLa, MCF-7, MDA-MB231 and Hacat cells; test: Transfection efficiency of the nanocomplex in various cell lines; conditions: luciferase activity 24 hrs after transfection, serum free media, multiple cell lines

SMILES	transfection efficiency with respect to R5H4R4H3 peptide comprising nanocomplex (MCF-7 cells)	transfection efficiency with respect to R9 homopeptide comprising nanocomplex (MCF-7 cells)	transfection efficiency compared to Cellfectin (Hacat cells)	transfection efficiency compared to Lipofectamine 2000 (Hacat cells)	transfection efficiency with respect to Superfect (Hacat cells)	transfection efficiency compared to Cellfectin (CHO-K1 cells [1])	transfection efficiency compared to Lipofectamine 2000 (CHO-K1 cells [1])	transfection efficiency with respect to R5H4R4H3 peptide comprising nanocomplex (CHO-K1 cells [1])	transfection efficiency with respect to R9 homopeptide comprising nanocomplex (CHO-K1 cells [1])	transfection efficiency with respect to Superfect (CHO-K1 cells [1])	transfection efficiency in the presence of 10% serum concentration (CHO-K1 cells [2])	maximal transfection efficiency [3]	transfection efficiency with respect to R(RH)7R peptide comprising nanocomplex (MCF-7 cells)	transfection efficiency with respect to R(RH)7R peptide comprising nanocomplex (CHO-K1 cells [1])
N=C(N)NCCC[C@H](NC(=O)[C@H](CCCNC(=N)N)NC(=O)[C@H](CCCNC(=N)N)NC(=O)[C@H](CCCNC(=N)N)NC(=O)[C@H](Cc1c[nH]cn1)NC(=O)[C@H](Cc1c[nH]cn1)NC(=O)[C@H](Cc1c[nH]cn1)NC(=O)[C@H](Cc1c[nH]cn1)NC(=O)[C@H](CCCNC(=N)N)NC(=O)[C@H](CCCNC(=N)N)NC(=O)[C@H](CCCNC(=N)N)NC(=O)[C@H](CCCNC(=N)N)NC(=O)[C@H](CCCNC(=N)N)NC(=O)[C@@H](N)CS)C(=O)N[C@@H](Cc1c[nH]cn1)C(=O)N[C@@H](Cc1c[nH]cn1)C(=O)N[C@@H](Cc1c[nH]cn1)C(=O)N[C@@H](CS)C(=O)O [CR5H4R4H3C, CRRRRRHHHHRRRRHHHC] (H-CRRRRRHHHHRRRRHHHC-OH)	two folds higher	three folds higher	higher	comparable	comparable	higher	comparable	two folds higher	four folds higher	increase is evident	5-7 orders in RLU/mg protein	7-9 orders in RLU/mg protein		
N=C(N)NCCC[C@H](NC(=O)[C@H](Cc1c[nH]cn1)NC(=O)[C@H](CCCNC(=N)N)NC(=O)[C@H](Cc1c[nH]cn1)NC(=O)[C@H](CCCNC(=N)N)NC(=O)[C@H](Cc1c[nH]cn1)NC(=O)[C@H](CCCNC(=N)N)NC(=O)[C@H](Cc1c[nH]cn1)NC(=O)[C@H](CCCNC(=N)N)NC(=O)[C@H](Cc1c[nH]cn1)NC(=O)[C@H](CCCNC(=N)N)NC(=O)[C@H](Cc1c[nH]cn1)NC(=O)[C@H](CCCNC(=N)N)NC(=O)[C@H](Cc1c[nH]cn1)NC(=O)[C@H](CCCNC(=N)N)NC(=O)[C@H](CCCNC(=N)N)NC(=O)[C@@H](N)CS)C(=O)N[C@@H](CS)C(=O)O [CR(RH)7RC, CRRHRHRHRHRHRHRHRC] (H-CRRHRHRHRHRHRHRHRC-OH)		four folds higher	higher	comparable	comparable	higher	comparable		five folds higher	increase is evident	5-7 orders in RLU/mg protein	7-9 orders in RLU/mg protein	three folds higher	three folds higher
